Results from PubChem BioAssay AID504467 (National Center for Advancing Translational Sciences (NCATS), 2011).
Hit rate of the full screen: of about 330,000 compounds, about 7,700 (2.3%) were called active. Inconclusive results, whose numbers are uncertain, are shown with a selection of clear calls. The call rests on the fitted dose curve; in most records, active means well fitted inhibition curve with a large enough effect; inconclusive means small, poorly fitted or top-dose-only effect, or effect the other way; inactive means flat fitted curve, though single readings scatter. Potencies beside an inconclusive call are fits to weak or partial responses and may not hold up.

Assay: qHTS screen for small molecules that inhibit ELG1-dependent DNA repair in human embryonic kidney (HEK293T) cells expressing luciferase-tagged ELG1; further: nearly all actives have a fitted effect of over 55% in size
Settings: HEK293T ELG1-luciferase reporter, luminescence, 16 h, DNA damage induced by 5-fluorouridine; activity change, negative = inhibition: at 46.1 µM (top of the series)
How it was run: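 Step one: seed 2,000 cells per well. Step two: pin-transfer compound or DMSO alongside 5-fluorouridine. Step three: incubate 16 hr, 37 °C, 5% CO2. Step four: add ONE-Glo, wait 30 min, read luminescence.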
On the % scale 0 is the no-effect control and ±100 the full control effect; potency means the concentration at half of the fitted maximal effect.

Row | SMILES | activity change, negative = inhibition | Potency
1 | Cc1ccccc1N1CCN(C2CCCN(C(=O)c3cnsn3)C2)CC1 (stereo not given) | inactive: 11% | –
2 | COc1ccc(NC(=O)c2cc(F)c(F)cc2Cl)cc1Cl | – | inconclusive: 20.6 µM [activator, partial curve]
3 | CC(=O)c1c(C)[nH]c(C(=O)Nc2ccc(Cl)cc2F)c1C | – | inconclusive: 16.4 µM [activator, partial curve]
4 | O=C(Nc1cccnc1)c1c(O)c2cccc3c2n(c1=O)CC3 | – | inconclusive: 16.4 µM [activator, partial curve, poor fit]
5 | O=C(Nc1nc(-c2cccs2)cs1)c1ccc(Cl)cc1 | inactive: 3.78% | –
6 | COc1ncccc1C(=O)NC1CCCc2c1cnn2-c1ccc(C)c(C)c1 (stereo not given) | – | inconclusive: 16.4 µM [inhibitor, partial curve]
7 | S=C(NNc1ccnc2cc(Cl)ccc12)Nc1ccc(Cl)cc1Cl | – | active: 20.6 µM
8 | O=C(CCn1cnc2ccccc2c1=O)Nc1nc(-c2ccc(Br)cc2)cs1 | inactive: 28.9% | –
9 | NC1=NC(=O)/C(=C/c2ccc(Br)cc2)S1 | – | inconclusive: 35.5 µM [activator, single point]
10 | COC(=O)c1sc(S(=O)(=O)N2CCCCC2)c(C(=O)OC)c1C | inactive: 13.8% | –
11 | O=C1NCCC/C1=N\Nc1ccc(Br)cc1 | – | inconclusive: 18.3 µM [activator, single point]
12 | CC(C)=CC(=O)N1CCC(n2nccc2NC(=O)CCc2ccccc2)CC1 | inactive: 1.21% | –
13 | C=CCNC(=O)c1ccc2c(=O)n(Cc3ccccc3OC)c(=S)[nH]c2c1 | inactive: -2.08% | –
14 | Cc1cccc(C(=O)OC(C)C(=O)Nc2ccc(S(=O)(=O)N3CCCC3)cc2)c1O (stereo not given) | – | inconclusive: 23.1 µM [inhibitor, single point]
15 | CCn1c(SCC(=O)Nc2ccc(N3CCOCC3)c(Cl)c2)nnc1-c1ccc(N)cc1 | inactive: -10.3% | –
16 | COc1ccc(-n2nc(C(=O)NCC(=O)N3CCOCC3)c3ccccc3c2=O)c(OC)c1 | – | inconclusive: 20.6 µM [activator, single point]
17 | NC(=NCc1ccco1)NC(=O)c1ccc(Cl)cc1 | – | inconclusive: 20.6 µM [activator, partial curve]
18 | O=c1c2ccccc2c(C=NC2CCN(Cc3ccccc3)CC2)c(O)n1Cc1ccc2c(c1)OCO2 | – | active: 6.51 µM
19 | CC(=O)Nc1ccc2c(c1)nc1n2CCN(C2CCCCC2)C1 | – | inconclusive: 20.6 µM [activator, partial curve]
20 | Cc1ccccc1CN1CCN(c2ccc(S(=O)(=O)N3CCCC3)cn2)CC1 | inactive: -7.77% | –
21 | CN(C)c1nc(OCCOC(=O)COc2ccc(Cl)cc2Cl)nc(N(C)C)n1 | inactive: -1.98% | –
22 | Cc1ccc(S(=O)(=O)N2CCOCC2)cc1NC(=O)COc1cccc(Oc2ccccc2)c1 | – | inconclusive: 18.3 µM [inhibitor, single point]
23 | COCCn1c(=O)[nH]c2cc(C(=O)N3CCN(c4cccc(C(F)(F)F)c4)CC3)ccc2c1=O | – | inconclusive: 23.1 µM [inhibitor, partial curve]

Reformatted in CSV form: entries from further up
Row,SMILES,"activity change, negative = inhibition",Potency
6,COc1ncccc1C(=O)NC1CCCc2c1cnn2-c1ccc(C)c(C)c1 (stereo not given),–,"inconclusive: 16.4 µM [inhibitor, partial curve]"
7,S=C(NNc1ccnc2cc(Cl)ccc12)Nc1ccc(Cl)cc1Cl,–,active: 20.6 µM
8,O=C(CCn1cnc2ccccc2c1=O)Nc1nc(-c2ccc(Br)cc2)cs1,inactive: 28.9%,–
9,NC1=NC(=O)/C(=C/c2ccc(Br)cc2)S1,–,"inconclusive: 35.5 µM [activator, single point]"
10,COC(=O)c1sc(S(=O)(=O)N2CCCCC2)c(C(=O)OC)c1C,inactive: 13.8%,–
11,O=C1NCCC/C1=N\Nc1ccc(Br)cc1,–,"inconclusive: 18.3 µM [activator, single point]"
12,CC(C)=CC(=O)N1CCC(n2nccc2NC(=O)CCc2ccccc2)CC1,inactive: 1.21%,–
13,C=CCNC(=O)c1ccc2c(=O)n(Cc3ccccc3OC)c(=S)[nH]c2c1,inactive: -2.08%,–
14,Cc1cccc(C(=O)OC(C)C(=O)Nc2ccc(S(=O)(=O)N3CCCC3)cc2)c1O (stereo not given),–,"inconclusive: 23.1 µM [inhibitor, single point]"

Following part:

Row | SMILES | activity change, negative = inhibition | Potency
24 | COc1ccc(NC(=O)c2ccccn2)cc1OC | – | inconclusive: 16.4 µM [activator, partial curve]
25 | CC(C)(C)c1ccc(C(=O)NC(=S)NNC(=O)c2cccs2)cc1 | – | inconclusive: 18.4 µM [activator, partial curve]
26 | CCOc1cc(C2NC(=O)NC2=O)ccc1O (stereo not given) | inactive: -1.47% | –
27 | CN(C)c1cccc(C(=O)Nc2nnc(Cc3ccccc3)s2)c1 | – | inconclusive: 20.6 µM [activator, single point]
28 | CCCn1cc(CN2CCCC(C(=O)c3cccc(OC(C)C)c3)C2)c(C)n1 (stereo not given) | – | inconclusive: 14.6 µM [inhibitor, partial curve]
29 | CCOC(=O)C1CCCN(C(=O)c2cncc(Br)c2)C1 (stereo not given) | – | inconclusive: 35.5 µM [inhibitor, single point]
30 | C[C@@H]1NS(=O)(=O)[C@H]2C[C@@H]3C=C[C@]2(O3)[C@H]1OC(=O)c1ccc(C(C)(C)C)cc1 | inactive: 0.956% | –
31 | O=C(NCc1ccccn1)c1cccc(S(=O)(=O)N2CCc3ccccc32)c1 | – | inconclusive: 29.1 µM [inhibitor, partial curve, poor fit]
32 | CCCN(CC(=O)Nc1cc(C)on1)CC(=O)Nc1ccccc1C | inactive: 2.38% | –
33 | COc1ccc(/C=N/n2cnc3c([nH]c4ccc(F)cc43)c2=O)cc1CN1CCCC1 | inactive: -1.22% | –
34 | Cc1cccc(C(=O)NC(C(=O)Nc2cccc(S(=O)(=O)N3CCCC3)c2)C(C)C)c1 (stereo not given) | inactive: -1.42% | –
35 | CC(=O)c1c(N2CCOCC2)nc2ccc(Cl)cc2c1-c1ccccc1 | – | inconclusive: 32.6 µM [inhibitor, partial curve, poor fit]
36 | CC1=C(C(=O)N2CCCC(C(=O)c3cccc(C(F)(F)F)c3)C2)OCCO1 (stereo not given) | – | inconclusive: 29.1 µM [inhibitor, partial curve, poor fit]
37 | COc1ccc(NC(=O)N(C)C[C@H]2Oc3ccc(NC(=O)Nc4c(C)noc4C)cc3C(=O)N([C@H](C)CO)C[C@H]2C)cc1 | inactive: 4.76% | –
38 | COc1cccc(CCN2C(=O)C(=O)N([C@@H](CNCc3ccccc3)Cc3ccccc3F)C[C@@H]2C(C)(C)C)c1 | inactive: -0.347% | –
39 | CCC[C@@H](CN1CCC[C@H]1CN1C(N)=NC[C@H]1C(C)C)N1C[C@@H](Cc2ccccc2)N(CCCC2CCCC2)C1=N | – | inconclusive: 16.4 µM [activator, partial curve, poor fit]
40 | CN(C)c1ccc(C(=O)n2nnc3ccccc32)cc1 | – | inconclusive: 25.9 µM [activator, partial curve, poor fit]
41 | CCCCCC(=O)NC(=S)Nc1ccc2oc(=O)ccc2c1 | inactive: 4.85% | –
42 | Cn1nc(-c2ccc(Cl)cc2)c2cc(C(=O)N3CCCC3)sc21 | – | inconclusive: 20.6 µM [inhibitor, single point]
43 | O=C(COC(=O)c1cnc(Cl)c(Cl)c1)c1ccc(F)cc1 | – | inconclusive: 20.6 µM [activator, partial curve, poor fit]
44 | CC(=O)N1c2ccc(S(=O)(=O)NCCC(=O)NCCc3cccc(C)c3)cc2CC1C (stereo not given) | – | inconclusive: 23.1 µM [inhibitor, partial curve]
45 | CCN(CC)c1cc(C)c2ccccc2n1 | inactive: -2.01% | –
